The source of these data is article PMC4905473.

Sequences of proteins named here, by UniProt entry; tags and fusion partners are left off.
UniProt P47811: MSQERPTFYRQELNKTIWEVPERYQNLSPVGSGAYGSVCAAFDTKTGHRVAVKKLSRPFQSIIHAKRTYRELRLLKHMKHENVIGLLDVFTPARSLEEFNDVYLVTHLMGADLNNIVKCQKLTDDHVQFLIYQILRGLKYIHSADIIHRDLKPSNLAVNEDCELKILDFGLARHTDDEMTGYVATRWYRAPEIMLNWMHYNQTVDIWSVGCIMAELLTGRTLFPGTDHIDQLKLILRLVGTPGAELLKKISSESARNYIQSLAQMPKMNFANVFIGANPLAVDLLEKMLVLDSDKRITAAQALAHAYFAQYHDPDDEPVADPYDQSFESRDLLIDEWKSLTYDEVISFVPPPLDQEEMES

Results are given in words; binding and its absence hold for the method and conditions named. Binding seen in cells or lysates may run through a third protein. Some binding calls cover weakened binding; strength is not graded here.

The target of the assay is T1, mouse MKK3 (mouse (endogenous in liver)) (UniProt O09110).
T1 sequence: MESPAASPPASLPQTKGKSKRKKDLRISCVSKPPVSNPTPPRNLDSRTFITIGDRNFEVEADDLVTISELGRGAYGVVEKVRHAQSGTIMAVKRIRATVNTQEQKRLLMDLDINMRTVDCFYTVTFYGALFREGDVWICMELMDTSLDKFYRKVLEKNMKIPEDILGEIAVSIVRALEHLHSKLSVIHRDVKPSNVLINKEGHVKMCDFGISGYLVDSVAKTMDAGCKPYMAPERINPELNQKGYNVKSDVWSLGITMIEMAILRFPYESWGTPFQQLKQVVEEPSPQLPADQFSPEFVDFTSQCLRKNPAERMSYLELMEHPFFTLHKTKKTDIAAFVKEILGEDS
Description: co-IP; IP with anti-MKK3 antibody (Epitomics #1728), protein A/G-Sepharose, Western/IP lysis buffer, WB with anti-p38; livers of paired WT-I and mSIRT1-KI mice.

For the substance “mouse p38 (p38α, MAPK14) (from UniProt P47811 1-360)”, the binding entry is recorded as “binds”.
